# Some results were stated once for a whole list of compounds, not compound by compound.
# Legend:
# CC49-TCO = test: Ex vivo blocking assay: blocking of [111In]Tz-Tg binding to CC49-TCO in LS174T tumor xenografts; parameters: species or system nude BALB/c mice; settings: blocking of [111In]Tz-Tg binding to CC49-TCO in vivo
# Description: FIG. 3 show a schematic display of the blocking assay. The blocking effect of non-radiolabeled Tz was determined as the change in tumor uptake of [111 1n]Tz-Tg 22 h p.i. Each Tz was administered 1 h prior to [111 1n]Tz-Tg and the uptake normalized to a group of animals were no blocking was performed (control).
# The inventors have recently developed a blocking assay that allows to assess the in vivo ligation performance of unlabeled tetrazine derivatives. This assay omits time-consuming development of radiolabeled tetrazines for every ligand to be tested. In this assay, binding of [^111In]Tz-Tg (see structure in example 7), a literature described pretargeted imaging agent, is blocked in vivo to the pretargeting vector CC49-TCO (described in Stéen, J.; Jørgensen, J. T.; Christoph, D.; Battisti, U. M.; Nørregaard, K.; Edem, P.; Bratteby, K.; Shalgunov, V.; Martin, W.; Svatunek, D.; Poulie, C. B. M.; Hvass, L.; Simon, M.; Thomas, W.; Rossin, R.; Robillard, M.; Kristensen, J. L.; Mikula, H.; Kjaer, A.; Herth, M. Lipophilicity and Click Reactivity Determine the Performance of Bioorthogonal Tetrazine Tools in Pretargeted in Vivo Chemistry; 2020 Dec. 24, 2020.), which was administered 72 h prior. The blocking effect of the unlabeled tetrazine derivatives is afterwards quantified via an ex vivo biodistribution study and normalized to the binding of [^111In]Tz-Tg determined without any blocking.
# All animal studies were approved by the Danish Animal Welfare Council, ministry of Justice. […] Tumors were measured using a caliper and the volume calculated using the formula volume=1/2 (length×width 2).
# Tumor-bearing animals were matched in groups based on their tumor volume (tumor volumes of ˜100-300 mm^3, n=3 in each group) and were administered 100 μg/100 μL of CC49-TCO (100 μg/100 μL, ˜7 TCO/mAb) per mouse. […] All tissues were weighted, and the radioactivity measured in a gamma counter (Wizard2, Perkin Elmer) and data was corrected for decay, tissue weight and injected amount of radioactivity. […]
# [1] = Reaction kinetics of tetrazines with TCO (stopped-flow, pseudo-first-order); assay type: physicochemical; settings: with TCO in PBS
# Description: Reaction kinetics of tetrazines with standard TCO were determined using pseudo-first-order measurements with an excess of the TCO compound in PBS (pH=7.4) at 37.0±0.1° C. following the decrease of tetrazine absorbance at 535 nm. Measurements were performed in triplicates using an SX20 stopped-flow photometer (Applied Photophysics, UK) equipped with a 535 nm LED light source. Data analysis was performed using Prism 6 (Graphpad) to determine the observed rate constants which were converted into secondorder rate constants through dividing by the TCO concentration.
# Second-order rate constants for the reaction with TCO in PBS at 37° C. were determined by pseudo-first order measurements in a SX20 stopped flow photometer (Applied Photophysics).
Compound,blocking effect (CC49-TCO),rate constant (reactivity) with TCO [1]
"O=C(O)C(F)(F)F.O=C(O)CN(CC(=O)O)Cc1ccc(-c2nncnn2)cc1OCCF [Compound 13, 1-Carboxy-N-(carboxymethyl)-N-(2-(2-fluoroethoxy)-4-(1,2,4,5-tetrazin-3-yl)benzyl) methanaminium 2,2,2-trifluoroacetate]",> 98%,> 50.000 M^−1 S^−1
"COc1cc(-c2nncnn2)ccc1CN(CC(=O)O)CC(=O)O.O=C(O)C(F)(F)F [iii, 1-Carboxy-N-(carboxymethyl)-N-(2-methoxy-4-(1,2,4,5-tetrazin-3-yl)benzyl)methanaminium 2,2,2-trifluoroacetate]",> 98%,> 50.000 M^−1 S^−1
"O=C(O)C(F)(F)F.O=C(O)CN(CC(=O)O)Cc1ccc(-c2nncnn2)cc1O [uuu, 1-Carboxy-N-(carboxymethyl)-N-(2-hydroxy-4-(1,2,4,5-tetrazin-3-yl)benzyl)methanaminium 2,2,2-trifluoroacetate]",> 98%,> 50.000 M^−1 S^−1

# From patent US20240182382A1, “ALIPHATIC 18F-RADIOLABELING OF A TETRAZINE PRECURSOR” (UNIVERSITY OF COPENHAGEN, priority 2021, published 2024)
